These are yes or no findings as the source states them, for the method shown.
Assays:
[1] = molecular target: Myeloid-derived growth factor (MYDGF), human, recombinant wild type without the signal peptide (human) (UniProt Q969H8); experiment: crystal structure; MYDGF alone; trigonal form (P3(1)21, two molecules per ASU) and a distinct orthorhombic form; both purified
[2] = molecular target: Myeloid-derived growth factor (MYDGF), human, recombinant wild type without the signal peptide (human) (UniProt Q969H8); experiment: SEC; analytical SEC of MYDGF alone, 10 µg injected, 50 mM NaPO4, 200 mM L-arginine, pH 6.8; molecular weight from BioRad standards; both purified

B1: Myeloid-derived growth factor (MYDGF), human, recombinant wild type without the signal peptide (protein, UniProt Q969H8 32-173)
chain: VSEPTTVAFDVRPGGVVHSFSHNVGPGDKYTCMFTYASQGGTNEQWQMSLGTSEDHQHFTCTIWRPQGKSYLYFTQFKAEVRGAEIEYAMAYSKAAFERESDVPLKTEEFEVTKTAVAHRPGAFKAELSKLVIVAKASRTEL
Q: For B1, which binding [1] is on record?
A: no binding

Q: What about the binding [2] of the same binder?
A: no binding (tested: 10 µg injected)
